Data reported in PubChem BioAssay AID493014 (National Center for Advancing Translational Sciences (NCATS), 2011).
About 170 (0.05%) of roughly 340,000 compounds were called active. The shares of active, inactive and inconclusive entries below differ from those in the screen. Calls come from the whole dose curve; as a rule, active = well fitted inhibition curve with a large enough effect in the signal ratio, with a control signal flat (not every such curve was filed as active); inconclusive = small, poorly fitted or top-dose-only effect, or effect the other way, or a change in a side signal; inactive = flat fitted curve, though single readings scatter; the % refers to the signal ratio. Where the call is inconclusive, the potency comes from a doubtful curve fit.
Potency is the fitted concentration of half-maximal effect.

Assay: qHTS Assay to Find Inhibitors of Chronic Active B-Cell Receptor Signaling;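 for activity change, negative = inhibition: plate controls were basal doxycycline-induced cells for no effect and cells given 10 µM MG132 for full effect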
Conditions: ABC-DLBCL IkBa-CBG/CBR reporter, luminescence ratio (green luciferase fused to IkBa over red control in TMD8 lymphoma cells), 4 h; activity change, negative = inhibition: at 46.1 µM (top of the series) unless noted
Summary of the method: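 Doxycycline induced both beetle luciferases in TMD8 lymphoma cells; IKK-driven degradation limits the IkappaBalpha-fused green signal, while red luminescence normalises for cell number and nonspecific effects. Compounds tested up to 46 uM, 4 hrs.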
In the case of `COc1cccc(NC(=O)c2ccc(NC(=O)C3CC(=O)OC34CCCCC4)cc2)c1` (configuration not stated), the activity change, negative = inhibition is reported as inconclusive: -1.63%.
In the case of `O=C(COC(=O)c1ccccc1O)NCC1COc2ccccc2O1` (configuration not stated), the “activity change, negative = inhibition” value is reported as inactive: 4.23%.
For `Cc1cc(S(=O)(=O)NCCN2CCOCC2)ccc1Cl`, the activity change, negative = inhibition was inconclusive: 1.46%.
With `CN1CCc2c1nc1ccccc1c2N` (tested in a mixture with another compound) the “activity change, negative = inhibition” value was inactive: 3.03%.
With `Cc1noc(C)c1CSCC(=O)Nc1cc(Cl)ccc1N1CCCCC1` the activity change, negative = inhibition was inconclusive: -16.9%.
For `O=C(CCl)Nc1ccccc1Sc1ccc(Cl)cc1`, the activity change, negative = inhibition was inconclusive: 18.1%.
For `COCCN(Cc1cc2ccccc2[nH]c1=O)C(=O)c1ccccc1OC`, the activity change, negative = inhibition was inconclusive: 1.81%.
With `O=C(CSc1c2c(nc3ccc(Cl)cc13)CCCC2)NCCCN1CCOCC1` the activity change, negative = inhibition was inconclusive: 24.9%.
With `CCCCn1c(SCC(=O)Nc2cc(C(F)(F)F)cc(C(F)(F)F)c2)nnc1C(CC)N(C)C` (configuration not stated) the activity change, negative = inhibition was inconclusive: -20.7%.
For `CCc1ccc(N(CC(=O)Nc2sc3c(c2C(=O)OC)CCCC3)S(C)(=O)=O)cc1`, the activity change, negative = inhibition was inconclusive: 5.66%.
With `O=S(=O)(NCC1CCCO1)c1cc(Cl)ccc1Cl` (configuration not stated) the Potency was inconclusive: 29.1 µM [falling, partial curve, poor fit].
For `O=C(NNc1cc(Br)c(O)c(Br)c1)c1ccccc1`, the “activity change, negative = inhibition” value was inactive: 5.41%.
For `COc1ccc(/C=N/NC(=O)c2cccc(Br)c2)cc1CN1CCOCC1`, the Potency was inconclusive: 12.6 µM [falling, partial curve].
In the case of `Cc1ccc(NC(=O)c2cncc(Br)c2)c([N+](=O)[O-])c1`, the activity change, negative = inhibition is reported as inconclusive: 2.39%.
For `Cc1cc(C)c(C#N)c(SCc2ccccc2F)n1`, the activity change, negative = inhibition was inconclusive: 7.4%.
In the case of `O=C(O)C1CC(=O)N(C2CCCCCC2)C1` (configuration not stated), the activity change, negative = inhibition is reported as inconclusive: 4.92%.
For `Nc1ncnc(Nc2cccc(C(F)(F)F)c2)n1`, the Potency was inconclusive: 35.5 µM [falling, single point].
With `CCN(CC)C(=O)c1sc2c(c1C)c(=O)n(-c1ccc(Cl)c(Cl)c1)c(=O)n2Cc1ccccc1C#N` the “activity change, negative = inhibition” value was inactive: 11.7%.
For `CC(C)CN(C(=O)c1ccco1)C1CCS(=O)(=O)C1` (configuration not stated), the Potency was inconclusive: 16.4 µM [falling, single point].
With `CCOc1ccccc1OCC(=O)NC1CCCCC1` the “activity change, negative = inhibition” value was inactive: -12%.
In the case of `COc1cccc2sc3cc(NCc4ccc5c(c4)OCO5)ccc3c(=O)c12`, the activity change, negative = inhibition is reported as inconclusive: -6.45%.
For `COc1ccc(/C=C\c2nc(=O)c3ccccc3o2)cc1`, the Potency was inconclusive: 6.31 µM [rising, single point].
In the case of `Cc1ccc(-c2nnn(CC(=O)N(Cc3ccco3)C(C(=O)NC(C)(C)C)c3cccs3)n2)o1` (configuration not stated), the Potency is reported as inconclusive: 6.51 µM [rising, single point].
In the case of `O=C1c2ccccc2S(=O)(=O)N1CC1CC(c2ccccc2)=NO1` (configuration not stated), the “activity change, negative = inhibition” value is reported as inactive: 1.37%.
With `CCOc1cc(CN2CCCC(CNC(=O)c3ccc(F)cc3)C2)ccc1OC` (configuration not stated) the activity change, negative = inhibition was inconclusive: 2%.
In the case of `O=C(Cn1cnc2c(OCc3ccccc3)ncnc21)N[C@H](CO)Cc1cc2ccccc2[nH]1`, the “activity change, negative = inhibition” value is reported as inactive: 6.18%.
With `Cc1cc(NC(=O)C(Cl)c2ccccc2)no1` (configuration not stated) the activity change, negative = inhibition was inconclusive: -7.7%.
With `COC(=O)c1sccc1NC(=O)/C=C/c1c(Cl)cccc1Cl` the Potency was inconclusive: 0.082 µM [falling, full curve, poor fit].
In the case of `CCOC(=O)c1cnc(-n2nc(C)cc2C)nc1NCc1ccccc1`, the “activity change, negative = inhibition” value is reported as inactive: -1.78%.
In the case of `CCCCn1c(N)c(N(CC(C)C)C(=O)CSCc2ccc(Cl)c(Cl)c2)c(=O)[nH]c1=O`, the “activity change, negative = inhibition” value is reported as inactive: 0.15%.
For `O=C(O)c1ccc(COc2ccc3ccccc3c2/C=C2/NC(=O)N(c3ccccc3)C2=O)cc1`, the activity change, negative = inhibition was inconclusive: -18.3%.
With `COc1cccc(CNc2nc(-c3cccnc3)nc3ccccc23)c1` the activity change, negative = inhibition was inconclusive: -10%.
For `O=C(O)CSc1nnc(NC(=O)CN2CCOCC2)s1`, the activity change, negative = inhibition was inconclusive: -0.347%.
With `Cc1nc(-c2ccc(F)cc2)sc1CCNC(=O)c1ccccc1` the “activity change, negative = inhibition” value was inactive: -5.3%.
With `O=C(NCc1ccc(Cl)cc1)c1cc2ccccn2n1` the Potency was inconclusive: 2.59 µM [rising, full curve].
For `CCOc1ccccc1N1CCN(C(=O)c2ccncc2)CC1`, the activity change, negative = inhibition was inconclusive: -0.18%.
In the case of `COc1ccc(OC)c(Nc2nc3ccc(C)cc3n3cnnc23)c1`, the activity change, negative = inhibition is reported as inconclusive: 2.16%.
With `O=C(CCc1ccccc1)N/N=C/c1cccc(O)c1` the activity change, negative = inhibition was inconclusive: 3.64%.
With `CCCCS(=O)(=O)N1CN(S(=O)(=O)CCCC)C2NC(=O)NC21` (configuration not stated) the Potency was inconclusive: 35.5 µM [falling, single point].
In the case of `O=C(c1cc(-c2ccc(Br)cc2)n[nH]1)N1CCN(C(=O)c2ccccc2Br)CC1`, the activity change, negative = inhibition is reported as inconclusive: -19.1%.
For `CCOC(=O)CC(NC(=O)c1cc2cccc(OC)c2oc1=O)c1ccc(OC)cc1` (configuration not stated), the Potency was inconclusive: 11.2 µM [falling, partial curve, poor fit].
With `Cc1ccc([N+](=O)[O-])cc1NC(=O)Nc1ccc(S(N)(=O)=O)cc1` the activity change, negative = inhibition was inconclusive: 8.86%.
